Results reported in patent US20120041172A1 (Polypeptide Laboratories A/S, priority 2009, published 2012).

Assay: general procedure: Fmoc solid-phase peptide synthesis; Fmoc-Rink amide AM resin; DIC/HOBt
Conditions: whole synthesis, overall

Substance: Ac-D-2Nal-D-Phe(4Cl)-D-3 Pal-Ser-4Aph(Hor)-D-4Aph(Cbm)-Leu-ILys-Pro-D-Ala-NH2
- isolated yield: overall yield 37%
